Where a name gives a salt, the structure may show the parent alone. Among all 5,300 compounds or so, about 130 (2.5%) showed an effect of 50% or more. Some of the results follow.
system: M. mycetomatis strain mm55; details: primary screen, metabolic activity vs growth control; 96 h, 2 µM; inhibitor

Structure (SMILES)	% viability [%]
COC(=O)c1cc(OC)c2c(c1-c1c(C(=O)OC)cc(OC)c3c1OCO3)OCO2 [ONC0003333, bifendate]	41.54
C[C@@H]1CN(c2c(F)c(F)c3c(=O)c(C(=O)O)cn(C4CC4)c3c2F)C[C@H](C)N1 [ONC0002428, orbifloxacin]	92.51
CN(C[C@@H]1COCCO1)S(=O)(=O)Nc1ccc2ccc3ncc(-c4cnn(C)c4)cc3c(=O)c2c1 [ONC0005098, mk2461]	89.82
C[N+](C)(C)[C@@H](Cc1c[nH]c(=S)[nH]1)C(=O)O [ONC0003509, lergothioneine]	51.74
CCCc1nn(C)c2c(=O)[nH]c(-c3cc(S(=O)(=O)N4CCN(C)CC4)ccc3OCC)nc12 [ONC0002449, sildenafil citrate]	120.1
CCCCOC(=O)c1cc2c(cn1)[nH]c1ccccc12 [ONC0001675, betaccb]	80.52
N#CC[C@H](C1CCCC1)n1cc(-c2ncnc3[nH]ccc23)cn1 [ONC0004795, ruxolitinib incb018424]	76.56
O=[N+]([O-])c1ccc(O)c2ncccc12 [ONC0005357, nitroxoline]	114.2
CS/C(N)=C(C#N)/C(C#N)=C(\N)SC [ONC0001516, u0124]	64.22
O=C(O)Cc1cc2ccccc2nc1C(=O)O [ONC0000070, ccmq]	115.3
CCCCC/C=C\C/C=C\C/C=C\CCCCC(=O)O [ONC0003850, gammalinolenicacid]	67.24
NS(=O)(=O)c1ccc2c(c1)C1C=CCC1C(c1ccc(Br)cc1)N2 (centres unmarked) [ONC0001411, 4bptqs]	74.33
Cc1cccc(C)c1OCC(=O)N[C@@H](Cc1ccccc1)[C@@H](O)C[C@H](Cc1ccccc1)NC(=O)[C@H](C(C)C)N1CCCNC1=O [ONC0004639, lopinavir abt378]	99.64
Clc1ccc(C(c2ccccc2Cl)C(Cl)Cl)cc1 (centres unmarked) [ONC0003263, mitotane]	101.6
O=C(c1ccc(F)cc1)C1CCN(CCn2c(=S)[nH]c3ccccc3c2=O)CC1 [ONC0004473, altanserin]	127.8
O=C(O)Cn1nnc(-c2cc(N3CCC(Oc4cc(F)ccc4Br)CC3)no2)n1 [ONC0004727, mk8245]	83.44
NC1=NC(=O)N([C@H]2C[C@H](O)[C@@H](CO)O2)CN1 [ONC0003691, 56dihydro5aza2deoxycytidine]	81.67
O=C(Nc1cccc(Br)c1)c1cccc(S(=O)(=O)N2CCCCCC2)c1 [ONC0004476, ak7]	107.9
CC[N+](C)(CC)CCC[n+]1c(-c2ccccc2)c2cc(N)ccc2c2ccc(N)cc21 [ONC0002942, propidiumiodide]	57.69
O=C(O)c1ccccc1Nc1cccc(C(F)(F)F)c1 [ONC0000652, flufenamic acid]	110.6
C[S+](CC[C@H](N)C(=O)[O-])C[C@H]1O[C@@H](n2cnc3c(N)ncnc32)[C@H](O)[C@@H]1O (some centres unmarked) [ONC0002262, ademetionine]	72.7

Structure (SMILES)	% viability [%]
c1ccc(-c2nn3c(c2-c2ccnc4cc(OCCN5CCOCC5)ccc24)CCC3)nc1 [ONC0004458, ly2109761]	103.5
CC(=O)Nc1ccc(S(=O)(=O)c2ccc(NC(C)=O)cc2)cc1 [ONC0004224, acedapsone]	69.59
COc1cc2nc(N3CCN(C(=O)COc4c(OC)cccc4C(C)C)CC3)nc(N)c2cc1OC [ONC0000260, rec152615]	69
CNCC/C=C/c1cccnc1 [ONC0005513, rjr 2403 oxalate]	95.62
Cc1ncc(CO)c(CN)c1O [ONC0005486, pyridoxamine]	80.9
c1ccc2sc(N3CCN(Cc4ccc5c(c4)OCO5)CC3)nc2c1 [ONC0000161, 214piperonylpiperazinylbenzothiazole]	77.89
O=C1Nc2ccc(Cl)cc2[C@@](C#CC2CC2)(C(F)(F)F)O1 [ONC0003451, efavirenz]	90.07
NCC(O)c1ccc(O)cc1 (centres unmarked) [ONC0003370, octopamine hydrochloride]	96.88
O=C(O)C1(c2ccc(-c3ccc(Cl)c(Cl)c3)c(F)c2)CC1 [ONC0005431, itanapraced]	144.8
Nc1ccc(C(=O)O)c(O)c1 [ONC0003334, aminosalicylate sodium]	35.29
CNCc1ccc(C)c(NC(=O)c2ccc(Nc3nc(-c4ccccc4)c4ccccc4n3)cc2)c1 [ONC0005160, bms833923 xl139]	123.1
C[C@@H]1CC[C@@]2(OC1)O[C@H]1C[C@H]3[C@@H]4CC=C5C[C@@H](O)CC[C@]5(C)[C@H]4CC[C@]3(C)[C@H]1[C@@H]2C [ONC0004961, diosgenin]	83.53
O[C@H](CNC[C@@H](O)[C@H]1CCc2cc(F)ccc2O1)[C@@H]1CCc2cc(F)ccc2O1 [ONC0004039, nebivolol hydrochloride]	98.08
O=C1CNC(=O)CN1 [ONC0003785, piperazinedione]	65.19
C=CCN1CCc2cc(O)c(O)cc2C(c2ccccc2)C1 (centres unmarked) [ONC0001628, skf77434]	65.83
O=C(NCCCCCCNC(=O)ON=C1CCCCC1)ON=C1CCCCC1 [ONC0003002, rhc80267]	85.14
Nc1ncnc2nc[nH]c12 [ONC0003170, adenine]	115.9
Nc1nc(/C(=C/CC(=O)O)C(=O)N[C@@H]2C(=O)N3C(C(=O)O)=CCS[C@H]23)cs1 [ONC0001312, ceftibuten dihydrate]	75.54
N#Cc1cccc(-c2nc(-c3cccnc3)no2)c1 [ONC0003578, ns9283]	116.1
CCCC[C@H](NC(=O)[C@@H]1[C@@H]2[C@H](CN1C(=O)[C@@H](NC(=O)NC1(CS(=O)(=O)C(C)(C)C)CCCCC1)C(C)(C)C)C2(C)C)C(=O)C(=O)NC1CC1 [ONC0000734, narlaprevir]	68.03

A second format for 3 compounds above:
COc1cc2nc(N3CCN(C(=O)COc4c(OC)cccc4C(C)C)CC3)nc(N)c2cc1OC [ONC0000260, rec152615]
  % viability [%]: 69
CNCc1ccc(C)c(NC(=O)c2ccc(Nc3nc(-c4ccccc4)c4ccccc4n3)cc2)c1 [ONC0005160, bms833923 xl139]
  % viability [%]: 123.1
N#Cc1cccc(-c2nc(-c3cccnc3)no2)c1 [ONC0003578, ns9283]
  % viability [%]: 116.1

Reference: PMC12670160, “A drug-repurposing screen of FDA- and EMA-approved drugs identifies two NF-κB inhibitors active against eumycetoma” (Journal of Antimicrobial Chemotherapy, 2025)
